In paper PMC8329294 one finds binding data, which are given here for four substances.

By UniProt entry, the sequences of proteins in these tests, tags left out.
UniProt P19474: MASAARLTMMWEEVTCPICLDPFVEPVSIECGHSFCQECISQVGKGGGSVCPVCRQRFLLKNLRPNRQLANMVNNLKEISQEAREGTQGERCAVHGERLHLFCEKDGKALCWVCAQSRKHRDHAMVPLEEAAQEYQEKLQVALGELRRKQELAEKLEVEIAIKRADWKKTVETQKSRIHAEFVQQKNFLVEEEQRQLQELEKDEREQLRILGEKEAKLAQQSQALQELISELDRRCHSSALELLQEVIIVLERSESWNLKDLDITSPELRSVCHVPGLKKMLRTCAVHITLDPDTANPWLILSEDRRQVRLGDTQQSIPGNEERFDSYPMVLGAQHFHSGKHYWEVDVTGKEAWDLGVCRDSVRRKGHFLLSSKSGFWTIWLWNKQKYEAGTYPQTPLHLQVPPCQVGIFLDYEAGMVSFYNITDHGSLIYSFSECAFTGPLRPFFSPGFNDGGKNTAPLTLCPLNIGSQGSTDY
UniProt P49915: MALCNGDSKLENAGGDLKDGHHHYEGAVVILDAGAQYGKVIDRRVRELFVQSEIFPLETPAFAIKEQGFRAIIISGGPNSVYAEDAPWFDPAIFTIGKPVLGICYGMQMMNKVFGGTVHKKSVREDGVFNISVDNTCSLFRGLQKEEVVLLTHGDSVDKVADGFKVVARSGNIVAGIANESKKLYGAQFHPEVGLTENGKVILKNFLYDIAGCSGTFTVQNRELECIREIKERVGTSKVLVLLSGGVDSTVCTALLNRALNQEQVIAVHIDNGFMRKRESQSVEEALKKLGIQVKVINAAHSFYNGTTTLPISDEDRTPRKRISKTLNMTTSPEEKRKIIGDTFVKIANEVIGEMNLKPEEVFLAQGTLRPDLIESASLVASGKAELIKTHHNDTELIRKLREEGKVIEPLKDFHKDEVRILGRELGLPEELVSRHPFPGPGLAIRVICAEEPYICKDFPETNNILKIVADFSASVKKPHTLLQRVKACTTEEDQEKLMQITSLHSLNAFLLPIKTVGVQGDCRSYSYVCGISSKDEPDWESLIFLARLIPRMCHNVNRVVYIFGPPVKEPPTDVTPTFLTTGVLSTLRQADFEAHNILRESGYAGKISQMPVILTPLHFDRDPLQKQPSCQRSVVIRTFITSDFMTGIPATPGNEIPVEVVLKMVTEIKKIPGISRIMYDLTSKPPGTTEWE

In assay [1] the target is E3 ubiquitin ligase TRIM21, endogenous (human (endogenous in MCF-7 and DU4475)) (UniProt P19474). Kind of assay: co-IP; endogenous proteins in lysates of MCF-7 and DU4475 cells (SNORD50A/B knocked out, ectopically expressed, restored, or control); lysates with the indicated antibody or IgG at 4 °C for 4-5 h, then protein A/G-agarose beads at 4 °C overnight; western blot.
Assay [2] addresses TRIM21 (pcDNA3.1-TRIM21) (human) (UniProt P19474). Nature of the assay: co-IP; HIS-GMPS and TRIM21 co-expressed in 293T cells (control, SNORD50A/B-deleted, SNORD50A/B re-expressed); immunoprecipitation and western blot.
The target in assay [3] is Guanosine 5'-monophosphate synthase (GMPS), endogenous (human (endogenous in MCF-7 and DU4475)) (UniProt P49915). Kind of assay: co-IP; endogenous proteins in lysates of MCF-7 and DU4475 cells (SNORD50A/B knocked out, ectopically expressed, restored, or control); lysates with the indicated antibody or IgG at 4 °C for 4-5 h, then protein A/G-agarose beads at 4 °C overnight; western blot.

No constants are given. Whether binding was seen depends on the method and setting. In cells and extracts the contact can be indirect. Some binding calls cover weakened binding; strength is not graded here.

With “Guanosine 5'-monophosphate synthase (GMPS), endogenous (from UniProt P49915 1-693)”, in assay [1], the binding result is “binds”.

On to “His-GMPS (pcDNA3.1-HIS-GMPS) (from UniProt P49915 1-693)”, for which, in assay [2], the binding result is “binds”.

For “USP7, endogenous (from UniProt Q93009 1-1102) (enzyme)”, in assay [3], the binding result is listed as “binds”.

As to “p53 (wild-type), endogenous (from UniProt P04637 1-393)”, in assay [3], the binding entry is given as “binds”.
